This is an account of results in patent US20170319690A1 (AGENCY FOR SCIENCE TECHNOLOGY AND RESEARCH, published 2017).

Results are given in words; binding and its absence hold for the method and conditions named.

The target in assay [1] is human Fc (the Fc part coupled to PD-L1) (human). Description: ELISA, antigen coated, Fab detected with anti-human Fab-HRP. A general note: ELISA stands for enzyme-linked immunosorbent assay.
The target is the same in assay [2]. Description: ELISA; plate coated with human Fc, Fab added (concentration not given), goat anti-human Fab-HRP/TMB, absorbance 450-670 nm.

B1: anti-PD-L1 antibody clone C4, Fab format (Fab, V domains shown)
VH: QVQLQQSGAEVKKPGSSVKVSCKASGGTFSSYAISWVRQAPGQGLEWMGRIIPILGIANYAQKFQGRVTITADKSTSTAYMELSSLRSEDTAVYYCARGGYGGNSLYAFDIWGQGTMVTVSS
VL: QSVVTQPPSVSAAPGQKVTISCSGSSSNIGNNYVSWYQQLPGTAPKLLIYDNNERLSGIPDRFSGSKSGTSATLGISGLQTGDEADYYCGTWDSSLSVVVFGGGTKLTVL
Turning to B1, the binding entry in assay [1] and in assay [2] was “no binding” in each case.

B2: anti-PD-L1 antibody clone H12, Fab format (Fab, V domains shown)
VH: EVQLVQSGAEVKKPGASVKVSCKASGGTFSSYAISWVRQAPGQGLEWMGRIIPILGIANYAQKFQGRVTITADKSTSTAYMELSSLRSEDTAVYYCARSGHGYSYGAFDYWGQGTL
VL: QSVLTQPPSVSGAPGQRVTISCTGSSSNIGAGYDVHWYQQLPGTAPKLLIYGNSNRPSGVPDRFSGSKSGTSASLAITGLQAEDEADYYCQSYDSSLSGSYVVFGGGTKLTVL
For B2, the binding entry in assay [1] and in assay [2] was “no binding” throughout.

B3: anti-PD-L1 antibody clone A1, Fab format (Fab, V domains shown)
VH: QVQLQQSGAEVKKPGSSVKVSCKASGGTFSSYAISWVRQAPGQGLEWMGRIIPILGIANYAQKFQGRVTITADKSTSTAYMELSSLRSEDTAVYYCARGGSYGSLYAFDIWGQGTMVTVSS
VL: QSVLTQPPSVSAAPGQRVSISCSGRSSNIASHDVFWYQQLPGTAPKIVMYETNKRPWGIPDRFSGSKSGTSATLDIAGLQTGDEADYYCGAWDSGLTGMLFGGGTKVTVL
notes: Human Fab from a phage display library
For the molecule B3, the binding result in assay [1] and in assay [2] was “no binding” in each case.

B4: anti-PD-L1 antibody clone C2, Fab format (Fab, V domains shown)
VH: QVQLQQSGAEVKKPGSSVKVSCKASGGTFSSYAISWVRQAPGQGLEWMGRIIPILGIANYAQKFQGRVTITADKSTSTAYMELSSLRSEDTAVYYCARGGSYGSLYAFDIWGQGTTVTVSS
VL: SYELTQPPSVSVAPGKTTRITCGGDNIGRKSVHWYQQRPGQAPLLLVYDDGDRPSGIPDRFSGSNSGNTATLTISGTQAMDEADYYCQAWDSTVVFGGGTRLTVL
notes: as for B3
Take B4: the binding result in assay [1] and in assay [2] was “no binding” in each case.
